These are yes or no findings as the source states them, for the method shown.
Experiments:
Experiment in all cases: SEC; Superdex 200 gel filtration in buffer A (20 mM Hepes pH 7.8, 500 mM NaCl, 1 mM TCEP, 10% glycerol); monomer or dimer read from the elution profile; both purified
[1] = biological target: PXP(Mcp1sc)-VABsc mutant (R2396E, I2468A, I2473A, M2474A) (S. cerevisiae) (UniProt Q12106+Q07878)
[2] = biological target: PXP(Spo71sc)-VABsc mutant (R2396E, I2468A, I2473A, M2474A) (S. cerevisiae) (UniProt Q03868+Q07878)
[3] = biological target: PXP(Ypt35sc)-VABsc mutant (R2396E, I2468A, I2473A, M2474A) (S. cerevisiae) (UniProt P38815+Q07878)

The chains behind the UniProt entries cited, without tags or fusion partners. Where a name states a change or a piece, a line headed by the entry shows the natural chain unless it says otherwise.
UniProt Q12106: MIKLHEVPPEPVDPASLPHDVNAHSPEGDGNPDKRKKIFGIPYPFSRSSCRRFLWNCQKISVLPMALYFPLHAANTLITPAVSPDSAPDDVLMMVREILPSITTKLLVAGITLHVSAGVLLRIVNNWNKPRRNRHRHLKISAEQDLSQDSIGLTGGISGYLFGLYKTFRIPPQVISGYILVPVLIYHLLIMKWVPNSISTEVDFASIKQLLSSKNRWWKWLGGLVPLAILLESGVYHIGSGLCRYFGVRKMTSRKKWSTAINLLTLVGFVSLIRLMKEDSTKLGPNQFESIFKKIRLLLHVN
UniProt Q07878: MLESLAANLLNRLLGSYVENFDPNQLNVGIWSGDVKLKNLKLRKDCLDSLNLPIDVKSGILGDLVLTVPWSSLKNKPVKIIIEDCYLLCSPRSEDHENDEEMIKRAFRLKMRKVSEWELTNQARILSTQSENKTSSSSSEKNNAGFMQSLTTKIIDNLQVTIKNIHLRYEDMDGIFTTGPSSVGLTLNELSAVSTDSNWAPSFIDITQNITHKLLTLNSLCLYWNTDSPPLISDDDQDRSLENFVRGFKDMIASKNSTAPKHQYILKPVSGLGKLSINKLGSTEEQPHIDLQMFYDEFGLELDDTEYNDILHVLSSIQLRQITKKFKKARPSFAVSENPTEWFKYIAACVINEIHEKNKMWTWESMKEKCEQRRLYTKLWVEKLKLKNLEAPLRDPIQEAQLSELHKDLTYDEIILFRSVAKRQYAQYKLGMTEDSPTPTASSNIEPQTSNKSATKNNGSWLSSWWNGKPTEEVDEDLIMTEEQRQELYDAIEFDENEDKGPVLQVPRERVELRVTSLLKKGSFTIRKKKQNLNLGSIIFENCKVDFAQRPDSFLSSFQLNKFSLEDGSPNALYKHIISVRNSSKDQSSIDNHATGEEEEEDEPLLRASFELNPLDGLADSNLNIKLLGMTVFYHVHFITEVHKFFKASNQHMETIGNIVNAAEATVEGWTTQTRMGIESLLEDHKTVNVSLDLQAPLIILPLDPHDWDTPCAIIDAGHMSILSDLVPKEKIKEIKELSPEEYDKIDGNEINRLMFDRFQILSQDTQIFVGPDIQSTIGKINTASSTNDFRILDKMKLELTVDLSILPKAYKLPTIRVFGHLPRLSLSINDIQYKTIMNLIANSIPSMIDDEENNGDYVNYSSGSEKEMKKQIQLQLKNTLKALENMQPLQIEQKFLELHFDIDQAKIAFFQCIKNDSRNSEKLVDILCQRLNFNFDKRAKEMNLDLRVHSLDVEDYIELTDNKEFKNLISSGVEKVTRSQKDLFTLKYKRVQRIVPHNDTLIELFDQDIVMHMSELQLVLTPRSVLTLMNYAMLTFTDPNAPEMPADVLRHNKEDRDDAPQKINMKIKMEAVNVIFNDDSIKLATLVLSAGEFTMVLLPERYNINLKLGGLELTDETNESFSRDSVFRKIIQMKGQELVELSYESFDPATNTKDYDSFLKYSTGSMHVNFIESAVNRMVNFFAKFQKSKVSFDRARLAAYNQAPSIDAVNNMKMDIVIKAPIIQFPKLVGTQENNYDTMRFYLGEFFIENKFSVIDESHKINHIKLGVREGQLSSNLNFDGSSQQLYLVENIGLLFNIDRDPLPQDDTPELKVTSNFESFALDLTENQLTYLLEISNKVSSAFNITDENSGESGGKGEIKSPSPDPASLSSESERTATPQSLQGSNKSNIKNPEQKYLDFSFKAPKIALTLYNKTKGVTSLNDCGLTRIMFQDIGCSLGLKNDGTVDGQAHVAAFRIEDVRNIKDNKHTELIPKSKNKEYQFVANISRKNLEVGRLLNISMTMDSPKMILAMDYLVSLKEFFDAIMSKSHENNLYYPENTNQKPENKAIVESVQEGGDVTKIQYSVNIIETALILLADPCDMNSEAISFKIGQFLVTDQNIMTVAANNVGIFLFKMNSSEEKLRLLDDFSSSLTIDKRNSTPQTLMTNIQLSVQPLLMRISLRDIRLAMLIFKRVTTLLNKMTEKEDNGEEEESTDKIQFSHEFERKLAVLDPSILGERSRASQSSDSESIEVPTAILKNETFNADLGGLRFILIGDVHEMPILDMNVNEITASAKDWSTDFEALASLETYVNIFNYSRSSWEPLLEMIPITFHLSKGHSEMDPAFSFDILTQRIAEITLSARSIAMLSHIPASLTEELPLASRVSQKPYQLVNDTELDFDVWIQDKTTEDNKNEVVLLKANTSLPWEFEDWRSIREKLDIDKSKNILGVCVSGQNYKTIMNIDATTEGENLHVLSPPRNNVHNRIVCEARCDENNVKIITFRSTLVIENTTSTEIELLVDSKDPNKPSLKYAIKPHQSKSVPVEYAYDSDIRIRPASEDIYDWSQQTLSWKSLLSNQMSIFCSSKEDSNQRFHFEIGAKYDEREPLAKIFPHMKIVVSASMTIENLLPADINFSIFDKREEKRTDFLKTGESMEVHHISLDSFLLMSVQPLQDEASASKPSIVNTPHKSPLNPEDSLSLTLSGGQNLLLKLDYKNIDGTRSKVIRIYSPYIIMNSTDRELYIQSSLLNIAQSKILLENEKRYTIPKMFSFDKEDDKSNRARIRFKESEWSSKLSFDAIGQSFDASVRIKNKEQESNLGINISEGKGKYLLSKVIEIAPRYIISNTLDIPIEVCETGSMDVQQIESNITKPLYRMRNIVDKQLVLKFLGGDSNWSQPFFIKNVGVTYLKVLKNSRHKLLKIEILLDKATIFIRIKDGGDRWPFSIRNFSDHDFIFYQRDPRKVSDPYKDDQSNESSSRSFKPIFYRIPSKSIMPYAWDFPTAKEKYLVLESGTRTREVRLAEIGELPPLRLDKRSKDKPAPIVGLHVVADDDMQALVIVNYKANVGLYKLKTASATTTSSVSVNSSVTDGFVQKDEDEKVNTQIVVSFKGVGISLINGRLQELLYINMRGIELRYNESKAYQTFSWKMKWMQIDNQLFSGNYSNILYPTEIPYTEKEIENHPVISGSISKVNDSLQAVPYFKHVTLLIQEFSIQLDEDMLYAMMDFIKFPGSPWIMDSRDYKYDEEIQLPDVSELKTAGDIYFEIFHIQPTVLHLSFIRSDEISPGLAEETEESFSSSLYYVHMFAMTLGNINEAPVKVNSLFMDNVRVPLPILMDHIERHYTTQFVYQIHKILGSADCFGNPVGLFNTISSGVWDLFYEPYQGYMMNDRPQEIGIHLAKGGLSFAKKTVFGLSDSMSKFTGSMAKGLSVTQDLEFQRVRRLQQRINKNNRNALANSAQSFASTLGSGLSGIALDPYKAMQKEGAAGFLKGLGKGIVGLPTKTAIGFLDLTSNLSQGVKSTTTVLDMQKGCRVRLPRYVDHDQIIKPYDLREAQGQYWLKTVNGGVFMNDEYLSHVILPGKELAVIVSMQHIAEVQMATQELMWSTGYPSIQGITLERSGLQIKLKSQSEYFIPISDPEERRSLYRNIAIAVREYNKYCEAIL
UniProt Q03868: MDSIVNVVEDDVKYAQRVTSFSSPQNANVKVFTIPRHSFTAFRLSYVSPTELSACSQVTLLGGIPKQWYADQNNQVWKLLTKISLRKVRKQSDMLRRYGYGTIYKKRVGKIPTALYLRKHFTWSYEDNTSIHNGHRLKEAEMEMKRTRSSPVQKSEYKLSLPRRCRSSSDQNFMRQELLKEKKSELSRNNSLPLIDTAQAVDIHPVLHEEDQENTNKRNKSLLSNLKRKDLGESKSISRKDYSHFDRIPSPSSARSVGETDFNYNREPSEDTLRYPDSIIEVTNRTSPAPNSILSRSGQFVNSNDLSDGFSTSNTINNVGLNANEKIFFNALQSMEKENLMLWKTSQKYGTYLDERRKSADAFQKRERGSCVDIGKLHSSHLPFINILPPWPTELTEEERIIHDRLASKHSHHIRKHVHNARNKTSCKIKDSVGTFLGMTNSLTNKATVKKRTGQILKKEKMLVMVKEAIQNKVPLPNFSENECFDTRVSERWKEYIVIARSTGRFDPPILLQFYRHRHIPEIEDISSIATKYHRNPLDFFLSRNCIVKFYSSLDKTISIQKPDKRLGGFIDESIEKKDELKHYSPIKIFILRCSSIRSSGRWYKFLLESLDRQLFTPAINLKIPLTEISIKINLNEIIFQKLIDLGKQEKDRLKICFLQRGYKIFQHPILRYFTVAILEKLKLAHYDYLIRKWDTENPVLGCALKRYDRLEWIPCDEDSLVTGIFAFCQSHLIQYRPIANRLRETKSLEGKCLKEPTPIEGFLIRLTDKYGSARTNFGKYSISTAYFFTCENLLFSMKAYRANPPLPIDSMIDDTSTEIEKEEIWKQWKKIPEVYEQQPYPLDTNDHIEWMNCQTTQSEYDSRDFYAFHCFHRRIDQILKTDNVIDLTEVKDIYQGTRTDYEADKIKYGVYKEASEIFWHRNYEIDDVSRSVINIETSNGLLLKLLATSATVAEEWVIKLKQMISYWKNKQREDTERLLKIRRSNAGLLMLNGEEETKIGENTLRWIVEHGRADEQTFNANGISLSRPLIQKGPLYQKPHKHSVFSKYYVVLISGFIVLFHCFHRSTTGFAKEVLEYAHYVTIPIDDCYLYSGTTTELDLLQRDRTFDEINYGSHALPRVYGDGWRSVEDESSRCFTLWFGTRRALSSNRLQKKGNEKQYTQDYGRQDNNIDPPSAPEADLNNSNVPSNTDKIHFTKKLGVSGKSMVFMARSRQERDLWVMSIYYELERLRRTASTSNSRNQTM
UniProt P38815: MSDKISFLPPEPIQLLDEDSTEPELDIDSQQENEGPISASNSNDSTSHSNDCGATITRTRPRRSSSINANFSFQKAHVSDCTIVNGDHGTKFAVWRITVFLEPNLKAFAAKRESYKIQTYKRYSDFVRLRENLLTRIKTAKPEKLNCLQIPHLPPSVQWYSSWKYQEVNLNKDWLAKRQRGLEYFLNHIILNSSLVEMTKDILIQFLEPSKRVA

B1: PXP(Mcp1sc)-VABsc mutant (R2396E, I2468A, I2473A, M2474A) (protein, UniProt Q12106 2-20; Q07878 1869-2545)
chain: IKLHEVPPEPVDPASLPHDKPYQLVNDTELDFDVWIQDKTTEDNKNEVVLLKANTSLPWEFEDWRSIREKLDIDKSKNILGVCVSGQNYKTIMNIDATTEGENLHVLSPPRNNVHNRIVCEARCDENNVKIITFRSTLVIENTTSTEIELLVDSKDPNKPSLKYAIKPHQSKSVPVEYAYDSDIRIRPASEDIYDWSQQTLSWKSLLSNQMSIFCSSKEDSNQRFHFEIGAKYDEREPLAKIFPHMKIVVSASMTIENLLPADINFSIFDKREEKRTDFLKTGESMEVHHISLDSFLLMSVQPLQDEASASKPSIVNTPHKSPLNPEDSLSLTLSGGQNLLLKLDYKNIDGTRSKVIRIYSPYIIMNSTDRELYIQSSLLNIAQSKILLENEKRYTIPKMFSFDKEDDKSNRARIRFKESEWSSKLSFDAIGQSFDASVRIKNKEQESNLGINISEGKGKYLLSKVIEIAPRYIISNTLDIPIEVCETGSMDVQQIESNITKPLYRMRNIVDKQLVLKFLGGDSNWSQPFFIKNVGVTYLKVLKNSEHKLLKIEILLDKATIFIRIKDGGDRWPFSIRNFSDHDFIFYQRDPRKVSDPYKDDQSNESSSRSFKPIFYRAPSKSAAPYAWDFPTAKEKYLVLESGTRTREVRLAEIGELPPLRLDKRSKDKPAPIVGLHVVADDDMQALVIVNYKAN
- binding [1]: no binding

B2: PXP(Spo71sc)-VABsc mutant (R2396E, I2468A, I2473A, M2474A) (protein, UniProt Q03868 380-400; Q07878 1869-2545)
chain: SHLPFINILPPWPTELTEEERKPYQLVNDTELDFDVWIQDKTTEDNKNEVVLLKANTSLPWEFEDWRSIREKLDIDKSKNILGVCVSGQNYKTIMNIDATTEGENLHVLSPPRNNVHNRIVCEARCDENNVKIITFRSTLVIENTTSTEIELLVDSKDPNKPSLKYAIKPHQSKSVPVEYAYDSDIRIRPASEDIYDWSQQTLSWKSLLSNQMSIFCSSKEDSNQRFHFEIGAKYDEREPLAKIFPHMKIVVSASMTIENLLPADINFSIFDKREEKRTDFLKTGESMEVHHISLDSFLLMSVQPLQDEASASKPSIVNTPHKSPLNPEDSLSLTLSGGQNLLLKLDYKNIDGTRSKVIRIYSPYIIMNSTDRELYIQSSLLNIAQSKILLENEKRYTIPKMFSFDKEDDKSNRARIRFKESEWSSKLSFDAIGQSFDASVRIKNKEQESNLGINISEGKGKYLLSKVIEIAPRYIISNTLDIPIEVCETGSMDVQQIESNITKPLYRMRNIVDKQLVLKFLGGDSNWSQPFFIKNVGVTYLKVLKNSEHKLLKIEILLDKATIFIRIKDGGDRWPFSIRNFSDHDFIFYQRDPRKVSDPYKDDQSNESSSRSFKPIFYRAPSKSAAPYAWDFPTAKEKYLVLESGTRTREVRLAEIGELPPLRLDKRSKDKPAPIVGLHVVADDDMQALVIVNYKAN
- binding [2]: no binding

B3: PXP(Ypt35sc)-VABsc mutant (R2396E, I2468A, I2473A, M2474A) (protein, UniProt P38815 2-22; Q07878 1869-2545)
chain: SDKISFLPPEPIQLLDEDSTEKPYQLVNDTELDFDVWIQDKTTEDNKNEVVLLKANTSLPWEFEDWRSIREKLDIDKSKNILGVCVSGQNYKTIMNIDATTEGENLHVLSPPRNNVHNRIVCEARCDENNVKIITFRSTLVIENTTSTEIELLVDSKDPNKPSLKYAIKPHQSKSVPVEYAYDSDIRIRPASEDIYDWSQQTLSWKSLLSNQMSIFCSSKEDSNQRFHFEIGAKYDEREPLAKIFPHMKIVVSASMTIENLLPADINFSIFDKREEKRTDFLKTGESMEVHHISLDSFLLMSVQPLQDEASASKPSIVNTPHKSPLNPEDSLSLTLSGGQNLLLKLDYKNIDGTRSKVIRIYSPYIIMNSTDRELYIQSSLLNIAQSKILLENEKRYTIPKMFSFDKEDDKSNRARIRFKESEWSSKLSFDAIGQSFDASVRIKNKEQESNLGINISEGKGKYLLSKVIEIAPRYIISNTLDIPIEVCETGSMDVQQIESNITKPLYRMRNIVDKQLVLKFLGGDSNWSQPFFIKNVGVTYLKVLKNSEHKLLKIEILLDKATIFIRIKDGGDRWPFSIRNFSDHDFIFYQRDPRKVSDPYKDDQSNESSSRSFKPIFYRAPSKSAAPYAWDFPTAKEKYLVLESGTRTREVRLAEIGELPPLRLDKRSKDKPAPIVGLHVVADDDMQALVIVNYKAN
- binding [3]: no binding
